Measurements taken from PMC4617965.
Results are given in words; binding and its absence hold for the method and conditions named. Binding seen in cells or lysates may run through a third protein. Some results given as binding are weak or reduced against the parent protein; the word gives no strength.

Protein sequences, listed by entry. Tags and fused reporters are not part of them.
UniProt Q24562: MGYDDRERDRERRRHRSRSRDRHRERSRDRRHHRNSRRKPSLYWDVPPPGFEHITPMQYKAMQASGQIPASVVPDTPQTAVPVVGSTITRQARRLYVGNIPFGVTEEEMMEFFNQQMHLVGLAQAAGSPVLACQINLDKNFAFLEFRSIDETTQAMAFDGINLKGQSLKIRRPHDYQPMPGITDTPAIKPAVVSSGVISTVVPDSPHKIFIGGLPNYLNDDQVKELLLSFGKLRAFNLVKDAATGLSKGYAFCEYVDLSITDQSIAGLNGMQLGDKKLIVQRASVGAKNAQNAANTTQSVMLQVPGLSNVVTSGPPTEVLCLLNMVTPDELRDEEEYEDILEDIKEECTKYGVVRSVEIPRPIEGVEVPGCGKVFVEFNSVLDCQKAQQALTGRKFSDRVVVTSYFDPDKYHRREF

Target: T1, UPF1 (Drosophila melanogaster) (UniProt Q9VYS3)
T1 sequence: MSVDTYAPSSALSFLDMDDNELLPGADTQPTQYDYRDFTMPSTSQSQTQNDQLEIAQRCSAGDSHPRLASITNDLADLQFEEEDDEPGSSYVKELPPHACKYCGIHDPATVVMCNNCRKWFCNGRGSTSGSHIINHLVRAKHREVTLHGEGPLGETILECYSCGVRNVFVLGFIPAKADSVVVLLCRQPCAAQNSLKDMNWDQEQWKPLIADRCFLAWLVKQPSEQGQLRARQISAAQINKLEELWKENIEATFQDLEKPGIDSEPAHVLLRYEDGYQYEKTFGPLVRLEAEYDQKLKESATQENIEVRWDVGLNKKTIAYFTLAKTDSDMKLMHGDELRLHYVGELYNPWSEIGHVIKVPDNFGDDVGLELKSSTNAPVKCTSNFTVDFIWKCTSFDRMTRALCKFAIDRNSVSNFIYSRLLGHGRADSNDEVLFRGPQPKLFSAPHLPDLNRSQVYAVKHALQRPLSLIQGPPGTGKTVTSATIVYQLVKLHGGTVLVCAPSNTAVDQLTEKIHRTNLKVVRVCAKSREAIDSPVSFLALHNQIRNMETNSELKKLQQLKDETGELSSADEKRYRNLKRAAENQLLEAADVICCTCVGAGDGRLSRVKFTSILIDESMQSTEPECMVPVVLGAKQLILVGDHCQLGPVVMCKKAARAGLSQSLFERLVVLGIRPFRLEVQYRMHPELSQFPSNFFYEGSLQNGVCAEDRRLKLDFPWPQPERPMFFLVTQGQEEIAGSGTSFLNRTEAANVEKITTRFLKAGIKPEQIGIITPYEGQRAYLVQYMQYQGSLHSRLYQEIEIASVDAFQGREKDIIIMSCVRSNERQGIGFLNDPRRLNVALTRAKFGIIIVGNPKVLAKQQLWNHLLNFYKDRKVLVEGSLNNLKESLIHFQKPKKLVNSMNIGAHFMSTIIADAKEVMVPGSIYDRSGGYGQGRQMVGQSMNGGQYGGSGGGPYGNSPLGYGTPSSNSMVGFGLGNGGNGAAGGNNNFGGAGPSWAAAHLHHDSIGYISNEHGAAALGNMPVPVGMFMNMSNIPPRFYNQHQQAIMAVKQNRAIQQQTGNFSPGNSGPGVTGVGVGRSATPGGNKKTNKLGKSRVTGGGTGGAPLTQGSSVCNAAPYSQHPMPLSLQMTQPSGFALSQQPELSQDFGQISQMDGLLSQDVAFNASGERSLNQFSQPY
Assay: co-IP; reciprocal co-IP with an alternative tag (Supplemental Fig. 3; Supplemental Methods)

binding: binds
Substance: U2AF50 (from UniProt Q24562 1-416)
